According to patent US20100196311A1, “METHODS AND COMPOSITIONS CONTAINING mTOR INHIBITORS FOR ENHANCING IMMUNE RESPONSES” (priority 2009, published 2010):
For at least one compound, name, drawing or mass did not settle the structure.

Assays:
OT-I cells [1] = experiment: Type I effector functions (IFN-γ, CTL activity, Granzyme B) of OT-I cells, primary and secondary phase; assay type: cell-based, mouse
Protocol: FIG. 3. Sustained mTOR Activity Is Essential for Heritable Type I Effector Differentiation of CD8^+ T Cells. […] (D and E) OT-I cells were stimulated with Ag+B7.1 (±) IL-12 and rapamycin was added 12 hr after stimulation to evaluate cells for (D) S6K phosphorylation at 48 hr and (E) IFN-γ production at the primary and secondary phase. Experiments shown are representative of at least three (A and B) and two (C-E) independent experiments with similar outcomes. (Data are presented as mean±SEM.)
Stimulation of OT-1 Cells. Naive OT-I cells were stimulated with latex microspheres expressing H-2K^b/ovalbumin antigen and B7.1 according to known techniques. Naive OT-II cells were stimulated with anti-CD3-/anti-CD28-coated latex beads. In some experiments, the cell line derived from embryonic fibroblasts, namely, BOK (MEC.B7.SigOVA: expressing H-2K^b, OVAp and B7.1, were used as antigen-presenting cells to stimulate naive OT-I cells according to known techniques.
Evaluation of Secondary Antigen-Recall Responses In Vitro. For studying secondary antigen-recall response in vitro; OT-I cells harvested at 72 hr (primary) were washed thrice with medium and recultured (1×10^5/ml) for an additional 72 hr in a 24-well plate with IL-7 (10 ng/ml) only. At 144 hr the cells were harvested, washed thrice with medium, had numbers adjusted (5×10^5), and were restimulated with Ag/B7.1 only for an additional 24 hr (secondary stimulation). At 168 hr, the cells recovered were evaluated by flow cytometry and in vitro functional assay.
Because the presence of IL-12 during antigen stimulation augments mTOR activity and is deterministic for type I effector maturation, we analyzed whether sustained mTOR kinase activity is required for IL-12-programmed type I effector functions in OT-I cells. To do so, we stimulated naive OT-I cells with BOK±IL-12, and rapamycin and effector functions were analyzed from the primary and secondary activated OT-I pool. […] In addition, we observed a block in IL-12-induced IFN-γ production and CTL activity upon rapamycin treatment at 144 hr after primary stimulation.

EG.7 cells = experiment: HP-induced anti-tumor CD8+T cell response, EG.7 challenge after rapamycin; assay type: in vivo, mouse; conditions: rapamycin daily for 8 days before EG.7 challenge
MOSEC-Ova tumors = experiment: CD8+T cell adoptive cell therapy of MOSEC-Ova ovarian tumors; assay type: in vivo, mouse; conditions: OT-1 cells conditioned 72 hours with antigen ± IL-12 and rapamycin
[2] = Dosing regimen in mouse models of cancers (general statement); assay type: in vivo; conditions: 15 μg once daily for 5-8 days
OT-I cells [3] = experiment: Adoptive transfer of conditioned OT-I cells: localization, persistence, antigen recall; assay type: in vivo, mouse
CD4+T cells (OT-II) = experiment: Activation, proliferation and cell recovery of CD4+ T cells (OT-II); assay type: cell-based, mouse
EG.7 thymoma = experiment: Homeostatic proliferation (HP) induced anti-tumor immunity in thymoma-EG.7 bearing mice; assay type: in vivo, mouse; conditions: radiation, transfer of naive CD8+T cells, rapamycin
CD8+T cell (OT-I) = experiment: Activation, proliferation, recovery and deviation of CD8+ T cells (OT-I); assay type: cell-based, mouse
OT-I cells [4] = experiment: Memory precursor phenotype of OT-I cells (surface markers, survival genes, IL-7/IL-15 response); assay type: cell-based, mouse
Eomesodermin = Eomesodermin mRNA and protein expression in OT-I cells; assay type: cell-based, mouse
Protocol: FIG. 5. Inhibition of mTOR Promotes Persistent Eomes Expression and Phenotypic Markers of Memory in CD8+T Cells. (A and B) OT-I cells stimulated with Ag+B7.1 (±) IL-12 and rapamycin were evaluated for (A) mRNA for Eomes at the indicated time points by RT-PCR and (B) Eomes protein expression at 72 hr by ICS. *p<0.03. (C) OT-I cells stimulated with Ag+B7.1 (±) IL-12 and rapamycin were transduced with T-bet-ER retroviral vector (±) 4-HT (10 nM) and evaluated for Eomes protein expression at 96 hr. (D) OT-I cells stimulated with Ag+B7.1 (±) IL-12 and rapamycin were evaluated for CD62L, CD69, KLRG1, CD127, and CD122 expression at 72 hr. (E) Bcl-2 and Bcl-3 mRNA expression at the indicated time points. (F and G) OT-I cells stimulated with Ag+B7.1 (±) IL-12 and rapamycin for 72 hr were washed twice and rested for an additional 72 hr in the presence of (F) IL-7 (10 ng/ml), *p<0.02, and (G) IL-15 (10 ng/ml). *p<0.02 and percent (%) cell recovery was calculated at 144 hr. […]
The closely related transcription factors T-bet and Eomesodermin are inversely regulated in effector and memory CD8^+T cells. To determine whether mTOR inhibition, which curtailed T-bet expression, led to induction of Eomesodermin, we systematically analyzed Eomesodermin mRNA expression in OT-I cells. […] We also determined whether IFN-α could also regulate mTOR activity and T-bet expression in OT-I cells.

## CO[C@H]1C[C@@H]2CC[C@@H](C)[C@@](O)(O2)C(=O)C(=O)N2CCCC[C@H]2C(=O)O[C@H]([C@H](C)C[C@@H]2CC[C@@H](O)[C@H](OC)C2)CC(=O)[C@H](C)/C=C(\C)[C@@H](O)[C@@H](OC)C(=O)[C@H](C)C[C@H](C)/C=C/C=C/C=C/1C [rapamycin]
OT-I cells [1]; 144 hr after primary stimulation
  IL-12-induced IFN-γ production and CTL activity: block
OT-I cells [1]; 168 hr, after antigen recall
  IL-12-conditioned effector functions from secondary activated pool (IFN-γ production and CTL activity): complete reversal
OT-I cells [1]; IL-12-conditioned, rapamycin added
  CTL activity of primary activated OT-I cells: reduced
OT-I cells [1]; IL-12-conditioned, rapamycin added, 72 hr
  IFN-γ production from primary activated OT-I cells: did not affect
OT-I cells [1]; IL-12-conditioned, rapamycin, 72 hr
  Granzyme B expression: decreased
OT-I cells [1]; rapamycin added at 12 hr after Ag+B7.1 stimulation
  IL-12-induced effector functions: blocked
EG.7 cells
  HP-induced tumor immunity (prophylactic): enhances
MOSEC-Ova tumors
  Ovarian tumor immunity by adoptive cell transfer: promote ovarian tumor immunity
[2]
  Enhancement of an immune system mediated effect: effective
OT-I cells [3]; 24 hr after transfer
  Cell numbers in tertiary sites (liver, blood): lesser numbers
OT-I cells [3]; 24 hr after transfer of rapamycin-conditioned OT-I cells
  Localization in secondary lymphoid compartments (lymph node and spleen): increased localization
OT-I cells [3]; day 40 post transfer
  Ability of OT-I cells to persist: markedly enhanced
OT-I cells [3]; day 43, after IFA-OVA immunization on day 40
  Antigen recall responses (clonal expansion, IFN-γ, Granzyme B, CTL activity): vigorous
CD4+T cells (OT-II)
  Activation (CD44 expression), proliferation (CFSE dilution) and cell recovery: significantly reduced
EG.7 thymoma
  HP-induced tumor immunity: enhanced
CD8+T cell (OT-I); OT-I cells
  Early (CD69, 12 hr) and late activation (CD44): did not affect
  Proliferation (CFSE) and cell recovery: only marginally affected
CD8+T cell (OT-I); rapamycin-treated OT-I cells
  FoxP3 expression: failed to persistently express
OT-I cells [4]; 72 hr
  CD122 expression: decreased
  CD127 expression: did not observe any changes
OT-I cells [4]; IL-12-conditioned, 72 hr
  CD69 expression: persistent
OT-I cells [4]; IL-12-conditioned, 72 hr, vs non-rapamycin-conditioned
  CD62L expression: markedly higher amounts
OT-I cells [4]; IL-15 10 ng/ml
  Ability to respond to IL-15 stimulation in vitro: defect
OT-I cells [4]; additional 72 hr IL-7, 168 hr
  CD62Lhi and KLRG1lo phenotype after IL-7 reculture or antigen recall: maintained
OT-I cells [4]; all time points observed
  Expression of prosurvival genes (Bcl-2 and Bcl-3): increased and sustained
OT-I cells [4]; vs non-treated controls
  Frequency of KLRG1lo cells: higher frequency
Eomesodermin; rapamycin added to Ag+B7.1 plus IL-12, 24-96 hr
  Eomesodermin mRNA expression: markedly enhanced
Eomesodermin; rapamycin-treated IL-12-conditioned, 72 hr
  Eomesodermin protein: significant increases
